From publication PMC5550871
No constants are given. Whether binding was seen depends on the method and setting. Binding seen in cells or lysates may run through a third protein. Some results given as binding are weak or reduced against the parent protein; the word gives no strength. For some of these results: Tags and fused reporters may be left off the sequences shown.

Chains of the proteins cited; added tags and fusions are not shown.
UniProt P08151: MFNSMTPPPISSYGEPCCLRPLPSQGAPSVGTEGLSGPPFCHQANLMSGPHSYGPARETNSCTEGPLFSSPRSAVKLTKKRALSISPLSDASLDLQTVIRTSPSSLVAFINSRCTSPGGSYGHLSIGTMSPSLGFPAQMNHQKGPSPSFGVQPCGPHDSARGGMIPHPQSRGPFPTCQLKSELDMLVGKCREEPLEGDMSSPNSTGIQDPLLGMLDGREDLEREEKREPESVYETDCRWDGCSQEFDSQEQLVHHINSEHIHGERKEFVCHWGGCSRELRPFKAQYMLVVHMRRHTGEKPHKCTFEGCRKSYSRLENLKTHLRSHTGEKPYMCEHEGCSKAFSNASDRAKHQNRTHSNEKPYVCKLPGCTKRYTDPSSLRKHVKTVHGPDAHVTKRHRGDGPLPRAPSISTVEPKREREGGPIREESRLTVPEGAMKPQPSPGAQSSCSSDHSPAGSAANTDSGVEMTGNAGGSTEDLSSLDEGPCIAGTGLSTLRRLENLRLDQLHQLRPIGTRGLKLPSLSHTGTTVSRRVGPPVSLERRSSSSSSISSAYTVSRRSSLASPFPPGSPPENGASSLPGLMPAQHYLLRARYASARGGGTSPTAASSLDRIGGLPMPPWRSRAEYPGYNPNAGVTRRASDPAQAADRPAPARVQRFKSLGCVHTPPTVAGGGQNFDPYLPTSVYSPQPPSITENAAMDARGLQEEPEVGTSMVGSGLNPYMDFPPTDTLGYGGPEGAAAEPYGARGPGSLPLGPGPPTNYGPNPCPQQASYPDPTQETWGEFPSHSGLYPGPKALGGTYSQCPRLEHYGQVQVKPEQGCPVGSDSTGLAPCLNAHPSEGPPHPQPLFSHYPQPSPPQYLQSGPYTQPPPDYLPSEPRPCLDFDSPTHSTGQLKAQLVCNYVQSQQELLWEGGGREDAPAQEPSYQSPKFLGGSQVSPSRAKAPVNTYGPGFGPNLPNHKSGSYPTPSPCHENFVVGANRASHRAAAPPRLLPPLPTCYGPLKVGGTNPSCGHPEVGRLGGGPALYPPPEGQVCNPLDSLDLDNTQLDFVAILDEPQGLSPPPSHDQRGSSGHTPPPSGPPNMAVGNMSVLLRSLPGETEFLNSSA
UniProt P10070: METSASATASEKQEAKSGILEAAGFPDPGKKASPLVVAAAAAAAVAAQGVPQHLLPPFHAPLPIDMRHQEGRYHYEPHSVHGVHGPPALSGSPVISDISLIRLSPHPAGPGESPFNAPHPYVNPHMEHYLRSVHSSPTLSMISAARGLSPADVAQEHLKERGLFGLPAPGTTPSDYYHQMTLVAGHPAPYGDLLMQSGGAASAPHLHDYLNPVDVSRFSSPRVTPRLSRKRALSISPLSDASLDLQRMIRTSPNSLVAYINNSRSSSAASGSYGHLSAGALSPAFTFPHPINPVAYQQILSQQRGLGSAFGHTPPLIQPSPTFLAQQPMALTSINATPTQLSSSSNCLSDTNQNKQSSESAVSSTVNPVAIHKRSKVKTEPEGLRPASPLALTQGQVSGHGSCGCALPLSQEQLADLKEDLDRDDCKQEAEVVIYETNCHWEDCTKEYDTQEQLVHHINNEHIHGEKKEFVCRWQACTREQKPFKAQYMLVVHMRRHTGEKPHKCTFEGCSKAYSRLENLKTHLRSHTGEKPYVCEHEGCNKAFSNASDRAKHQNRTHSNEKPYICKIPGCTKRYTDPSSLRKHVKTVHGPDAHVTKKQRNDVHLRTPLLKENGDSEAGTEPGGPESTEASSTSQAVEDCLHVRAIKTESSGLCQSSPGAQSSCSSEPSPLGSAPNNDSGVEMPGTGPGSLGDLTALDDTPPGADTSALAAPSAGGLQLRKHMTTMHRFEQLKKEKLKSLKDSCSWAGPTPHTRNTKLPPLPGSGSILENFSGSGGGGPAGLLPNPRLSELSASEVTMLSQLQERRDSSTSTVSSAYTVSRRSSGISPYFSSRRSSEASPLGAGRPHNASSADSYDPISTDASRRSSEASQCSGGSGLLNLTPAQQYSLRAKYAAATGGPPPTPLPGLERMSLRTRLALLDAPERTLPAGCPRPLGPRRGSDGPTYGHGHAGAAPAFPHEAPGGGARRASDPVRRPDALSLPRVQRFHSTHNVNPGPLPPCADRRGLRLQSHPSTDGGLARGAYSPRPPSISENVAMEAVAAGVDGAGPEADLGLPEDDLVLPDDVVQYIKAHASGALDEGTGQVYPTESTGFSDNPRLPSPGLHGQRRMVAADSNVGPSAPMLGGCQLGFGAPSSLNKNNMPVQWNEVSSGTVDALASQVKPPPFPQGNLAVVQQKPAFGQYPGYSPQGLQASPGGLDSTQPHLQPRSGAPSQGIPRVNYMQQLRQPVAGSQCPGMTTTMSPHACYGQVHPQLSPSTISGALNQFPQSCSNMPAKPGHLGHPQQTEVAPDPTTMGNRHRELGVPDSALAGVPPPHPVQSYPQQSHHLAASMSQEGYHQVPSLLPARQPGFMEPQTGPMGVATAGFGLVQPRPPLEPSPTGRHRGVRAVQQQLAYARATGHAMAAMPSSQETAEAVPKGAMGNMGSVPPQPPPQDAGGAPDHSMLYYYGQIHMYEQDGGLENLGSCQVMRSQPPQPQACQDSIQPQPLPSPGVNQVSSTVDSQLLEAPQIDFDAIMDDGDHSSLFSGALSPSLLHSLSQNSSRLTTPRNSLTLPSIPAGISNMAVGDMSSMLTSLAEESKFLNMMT
UniProt P47806: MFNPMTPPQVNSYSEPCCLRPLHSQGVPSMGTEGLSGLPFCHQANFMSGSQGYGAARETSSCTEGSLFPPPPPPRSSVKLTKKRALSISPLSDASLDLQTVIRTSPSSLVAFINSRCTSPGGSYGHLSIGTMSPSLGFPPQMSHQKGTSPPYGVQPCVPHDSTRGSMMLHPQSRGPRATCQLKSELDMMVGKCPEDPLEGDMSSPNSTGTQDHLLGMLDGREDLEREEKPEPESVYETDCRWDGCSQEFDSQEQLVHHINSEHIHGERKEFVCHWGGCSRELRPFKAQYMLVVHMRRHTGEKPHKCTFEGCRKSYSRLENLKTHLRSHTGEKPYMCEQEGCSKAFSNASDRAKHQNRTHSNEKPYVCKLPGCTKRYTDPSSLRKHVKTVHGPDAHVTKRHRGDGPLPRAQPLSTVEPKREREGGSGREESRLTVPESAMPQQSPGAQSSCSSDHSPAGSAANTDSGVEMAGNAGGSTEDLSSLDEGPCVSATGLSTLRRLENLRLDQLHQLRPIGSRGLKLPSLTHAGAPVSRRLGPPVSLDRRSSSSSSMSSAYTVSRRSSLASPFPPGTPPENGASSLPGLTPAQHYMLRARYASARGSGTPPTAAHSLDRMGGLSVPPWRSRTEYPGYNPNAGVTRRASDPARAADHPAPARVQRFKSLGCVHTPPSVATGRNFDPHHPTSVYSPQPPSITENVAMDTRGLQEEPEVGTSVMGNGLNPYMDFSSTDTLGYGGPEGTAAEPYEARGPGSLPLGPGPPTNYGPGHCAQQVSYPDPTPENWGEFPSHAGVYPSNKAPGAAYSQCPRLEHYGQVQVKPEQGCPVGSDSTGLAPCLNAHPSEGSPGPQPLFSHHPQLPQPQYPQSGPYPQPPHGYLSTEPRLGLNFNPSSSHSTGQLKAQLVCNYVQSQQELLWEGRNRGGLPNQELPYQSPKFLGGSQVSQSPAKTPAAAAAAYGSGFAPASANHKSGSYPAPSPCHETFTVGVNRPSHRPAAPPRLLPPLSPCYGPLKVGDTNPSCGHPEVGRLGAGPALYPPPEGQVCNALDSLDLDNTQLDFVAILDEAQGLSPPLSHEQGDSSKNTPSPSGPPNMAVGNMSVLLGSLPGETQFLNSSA

What was measured:
[1] = target: HA-tagged Gli1 (pCS2-HA3-Gli1) (UniProt P08151); assay: co-IP; reciprocal: transfected HEK293T lysate, pre-cleared with Protein G-Agarose, anti-Gli1 (C-1) or normal mouse IgG overnight at 4 °C; Maml1 detected with anti-Flag
[2] = target: Flag-tagged Maml1 full-length (1–1016) (UniProt Q92585); assay: co-IP; transfected HEK293T cells; lysate incubated with Flag M2 agarose beads for 2 h at 4 °C; control with the antibody saturated with Flag peptide; blots with anti-HA or anti-Myc
[3] = target: T1, Flag-tagged Maml1 (303–1016) (UniProt Q92585); assay: as above
T1 sequence: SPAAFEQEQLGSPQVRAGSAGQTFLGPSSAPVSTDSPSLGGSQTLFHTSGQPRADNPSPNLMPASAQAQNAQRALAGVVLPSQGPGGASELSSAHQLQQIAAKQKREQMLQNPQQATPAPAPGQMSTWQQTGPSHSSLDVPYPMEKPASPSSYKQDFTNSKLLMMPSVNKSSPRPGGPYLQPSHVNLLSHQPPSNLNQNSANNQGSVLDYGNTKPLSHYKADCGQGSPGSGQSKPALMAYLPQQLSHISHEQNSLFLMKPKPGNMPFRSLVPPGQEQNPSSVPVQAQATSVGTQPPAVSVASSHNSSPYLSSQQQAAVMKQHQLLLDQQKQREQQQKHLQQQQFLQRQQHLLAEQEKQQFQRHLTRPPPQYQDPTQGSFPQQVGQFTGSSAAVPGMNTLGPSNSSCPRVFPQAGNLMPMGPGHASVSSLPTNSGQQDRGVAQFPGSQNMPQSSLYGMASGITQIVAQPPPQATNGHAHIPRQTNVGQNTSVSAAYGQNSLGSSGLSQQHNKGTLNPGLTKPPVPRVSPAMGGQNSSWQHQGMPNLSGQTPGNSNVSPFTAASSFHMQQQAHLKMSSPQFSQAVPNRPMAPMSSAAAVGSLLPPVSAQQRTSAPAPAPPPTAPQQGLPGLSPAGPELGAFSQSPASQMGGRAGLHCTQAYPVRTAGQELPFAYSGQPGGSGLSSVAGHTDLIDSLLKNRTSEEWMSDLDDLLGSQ

[4] = target: Flag-tagged Maml1 (1–302) (UniProt Q92585); assay: as above
[5] = target: endogenous Maml1 (mouse (endogenous in Ptch1−/− MEFs and NIH3T3)) (UniProt Q6T264); assay: co-IP; endogenous proteins; Ptch1−/− MEF lysate, anti-Maml1 (D3E9) or normal rabbit IgG overnight at 4 °C, Protein A-Agarose; blot for Gli1
[6] = target: endogenous Maml1 (mouse (endogenous in Ptch1−/− MEFs and NIH3T3)) (UniProt Q6T264); assay: proximity ligation; in situ PLA (Duolink) in NIH3T3 cells with anti-Gli1 (H300) and anti-Maml1 (N-20); signal only when the two antigens are less than 40 nm apart; controls with only one primary antibody

Flag-tagged Maml1 full-length (1–1016) (from UniProt Q92585 1-1016)
binding [1]: binds

Myc-tagged Gli2 full length (pCS2-MT Gli2FL-Myc) (from UniProt P10070 1-1586)
binding [2]: binds

HA-tagged Gli1 (pCS2-HA3-Gli1) (from UniProt P08151 1-1106)
binding [3]: binds
binding [4]: binds
binding [2]: binds

endogenous Gli1 (from UniProt P47806 1-1111)
binding [5]: binds
binding [6]: binds
